Source: PubChem BioAssay AID686943 (Drosophila RNAi Screening Center, 2013)
Test: 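Search across the genome for regulators of signalling from receptor tyrosine kinase to ERK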 (primary screen). Cell system: Drosophila S2R+ haemocyte-like cells expressing YFP-tagged ERK (Rolled). Knock-down reagent: long dsRNA against Drosophila genes. Treatment: insulin stimulation versus unstimulated cells; dose and duration not given. Read-out: 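Antibody staining for doubly phosphorylated ERK divided by ERK-YFP signal, as plate z-scores, in insulin-treated and untreated cells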. Reading the numbers: replicate 1, z-score of dpERK with insulin and replicate 2, z-score of dpERK with insulin: higher = more active ERK per ERK-YFP after insulin; replicate 1, z-score of dpERK under basal conditions: higher = more basal active ERK per ERK-YFP; replicate 1, z-score of ERK-YFP with insulin: higher = more YFP-tagged ERK signal.
The screen tested about 23,000 reagents; shown is a random part of those with a known target gene and a result. 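Extra replicates exist only for a retested subset of genes; insulin dose and duration not given; both raised and lowered dpERK matter.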 A plus sign joins genes that one reagent is predicted to hit. Not stated in the record: the amount of reagent, the time to read-out.

no.	gene knocked down	DRSC id	replicate 1, z-score of dpERK with insulin	replicate 2, z-score of dpERK with insulin	replicate 1, z-score of dpERK under basal conditions	replicate 1, z-score of ERK-YFP with insulin
1	mRpL22	DRSC19915	-1.18	0.68	-1.33	1.21
2	lqfR	DRSC14703	-0.08	0.04	-0.23	-0.35
3	lqfR	DRSC14704	0.94	0.96	-0.91	-0.5
4	Cyp6u1	DRSC05015	0.63	0.9	0.35	0.24
5	CG14797 + CG32809	DRSC18562	-0.19	1.43	-0.07	0.74
6	hyx	DRSC14462	2.65	3.23	6.22	-2.21
7	Ssk	DRSC10756	0.7	1.4	-0.84	-1.07
8	Mpv17	DRSC17198	0.73	0.22	-0.28	0.18
9	Ilp5	DRSC08998	-0.08	0.38	0	0.54
10	mRF1	DRSC02880	-0.25	-0.8	-0.31	0.28
11	Phk-3	DRSC04547	0.48	0.09	1.02	-0.56
12	Trap1	DRSC05019	0.12	0.13	0.37	0.08
13	CG7724	DRSC10905	-0.3	-0.01	-0.45	0.84
14	CG5550	DRSC06943	-0.3	-1.03	-1.25	0.64
15	Noc2	DRSC03165	0.17	0.02	-2.5	-0.16
16	CG14646	DRSC12232	-0.06	1.29	0.84	0.4
17	CG14646	DRSC21316	0.41	-0.57	0.43	-0.93
18	MRP	DRSC02942	0.73	0.91	0.62	0.45
19	srp	DRSC13125	0.27	0.09	-0.15	-0.21
20	srp	DRSC17068	-1.4	-2.05	-3.75	-7.28
21	alpha-Man-Ib	DRSC14418	1.54	-1.08	-0.5	2.68
22	pit	DRSC17025	0.47	0.14	-0.46	-0.76
23	pit	DRSC22798	0.04	0.81	2.79	1
24	Blimp-1	DRSC10496	0.9	0.55	-0.32	0.19
25	Cap-H2	DRSC14908	-0.12	0.16	-0.09	0.14
26	kn	DRSC05505	1.22	0.3	-0.42	-0.17
27	kn	DRSC05507	0.39	1.02	0.49	0.26
28	kn	DRSC06196	-0.46	-0.26	-0.13	-1.18
29	kn	DRSC07637	-0.65	-0.42	-0.96	0.41
30	kn	DRSC21533	0.12	0.54	0.54	0.34
31	EbpIII	DRSC04638	-0.79	-1.94	-0.55	1.25
32	CG14397	DRSC02381	0.25	-0.99	-0.59	0.24
33	ppl	DRSC11899	0.51	1.47	-0.12	0.4
34	Nab2	DRSC14158	-0.08	0.62	3.14	-0.11
35	flfl	DRSC16474	-1.64	-2.5	-0.92	-2.23
36	CheA86a	DRSC12839	0.01	-0.88	0.63	0.18
37	LManV	DRSC03223	-0.73	-0.02	-1.35	0.19
38	bys	DRSC18748	-0.01	-0.08	-0.08	-0.54
39	CG32099	DRSC21352	0.53	0.15	0.84	-0.6
40	Noc3	DRSC12535	-0.04	2.01	1.79	-0.19
41	Obp57c	DRSC06384	0.28	-0.86	-0.99	0.05
42	side-VIII	DRSC05880	0.13	1.01	0.24	-0.01
43	side-VIII	DRSC05883	-1.64	0.1	-1.91	-2.47
44	side-VIII	DRSC06157	-0.01	-0.59	0.12	0
45	ms(3)K81	DRSC14746	1.32	-0.06	1.77	-0.12
46	Galphao	DRSC07430	0.75	0.45	0.52	0.27
47	CG10916	DRSC06012	1.28	0.23	0.4	-1.73
48	CG32645	DRSC19683	-0.28	0.02	-1.07	0.98
49	CG32645	DRSC19889	0.31	0.69	-0.42	-0.03
50	CG8620	DRSC11020	-0.29	-0.27	-0.69	1.01
51	CG7131	DRSC16203	-0.04	-0.61	-0.74	0.37
52	CG31674	DRSC03208	0.33	-0.8	0.36	-0.58
53	CG2533	DRSC19855	0.79	0.22	0.62	0
54	peg	DRSC15216	0.71	-0.48	-0.54	0.66
55	htl	DRSC16968	0.6	0.25	0.15	-0.03
56	Lcp3	DRSC07457	0.97	0.59	0.14	0.17
57	rasp	DRSC08191	0.35	0.11	0.22	0.3
